From the supplement of paper PMC10849652
Some of the results follow.

The chains behind the UniProt entries cited, without tags or fusion partners. Where a name states a change or a piece, a line headed by the entry shows the natural chain unless it says otherwise.
UniProt Q86UV5: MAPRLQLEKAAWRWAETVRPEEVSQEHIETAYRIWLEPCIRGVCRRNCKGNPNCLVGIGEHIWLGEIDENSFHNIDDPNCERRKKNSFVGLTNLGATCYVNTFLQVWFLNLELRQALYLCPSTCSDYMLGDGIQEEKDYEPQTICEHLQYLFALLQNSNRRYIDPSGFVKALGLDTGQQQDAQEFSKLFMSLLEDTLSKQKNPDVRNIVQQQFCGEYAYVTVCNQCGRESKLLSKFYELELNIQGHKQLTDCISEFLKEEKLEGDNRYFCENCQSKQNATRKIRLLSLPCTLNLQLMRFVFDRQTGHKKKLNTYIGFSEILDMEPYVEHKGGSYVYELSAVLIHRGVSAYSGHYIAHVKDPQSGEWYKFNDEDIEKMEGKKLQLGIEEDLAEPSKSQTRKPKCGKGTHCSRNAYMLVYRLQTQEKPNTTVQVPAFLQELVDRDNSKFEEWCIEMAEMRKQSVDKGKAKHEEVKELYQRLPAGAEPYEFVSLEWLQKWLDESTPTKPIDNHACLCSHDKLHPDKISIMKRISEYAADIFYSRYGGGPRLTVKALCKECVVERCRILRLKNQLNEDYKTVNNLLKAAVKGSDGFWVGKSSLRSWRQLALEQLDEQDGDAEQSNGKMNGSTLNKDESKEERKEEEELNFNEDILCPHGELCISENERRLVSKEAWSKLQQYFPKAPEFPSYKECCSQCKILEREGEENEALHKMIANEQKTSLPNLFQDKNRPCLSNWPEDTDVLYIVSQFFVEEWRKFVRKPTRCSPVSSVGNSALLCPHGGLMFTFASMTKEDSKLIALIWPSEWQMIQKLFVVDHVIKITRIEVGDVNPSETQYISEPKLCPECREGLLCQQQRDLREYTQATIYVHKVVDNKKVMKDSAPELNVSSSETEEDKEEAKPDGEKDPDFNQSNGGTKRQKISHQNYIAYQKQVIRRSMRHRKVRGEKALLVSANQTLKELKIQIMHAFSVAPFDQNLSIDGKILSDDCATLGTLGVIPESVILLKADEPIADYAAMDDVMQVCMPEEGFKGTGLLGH
UniProt P22415: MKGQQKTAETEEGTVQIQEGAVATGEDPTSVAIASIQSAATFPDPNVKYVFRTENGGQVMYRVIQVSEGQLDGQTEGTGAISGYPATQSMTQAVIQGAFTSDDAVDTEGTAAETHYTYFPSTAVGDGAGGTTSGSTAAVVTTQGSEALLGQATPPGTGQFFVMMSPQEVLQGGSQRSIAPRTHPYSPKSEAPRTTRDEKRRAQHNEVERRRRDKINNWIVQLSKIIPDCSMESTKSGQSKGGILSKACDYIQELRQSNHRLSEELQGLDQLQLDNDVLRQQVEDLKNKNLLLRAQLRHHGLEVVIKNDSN
UniProt O14957: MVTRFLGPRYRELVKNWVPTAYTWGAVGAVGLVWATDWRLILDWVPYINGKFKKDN
UniProt Q9UHP3: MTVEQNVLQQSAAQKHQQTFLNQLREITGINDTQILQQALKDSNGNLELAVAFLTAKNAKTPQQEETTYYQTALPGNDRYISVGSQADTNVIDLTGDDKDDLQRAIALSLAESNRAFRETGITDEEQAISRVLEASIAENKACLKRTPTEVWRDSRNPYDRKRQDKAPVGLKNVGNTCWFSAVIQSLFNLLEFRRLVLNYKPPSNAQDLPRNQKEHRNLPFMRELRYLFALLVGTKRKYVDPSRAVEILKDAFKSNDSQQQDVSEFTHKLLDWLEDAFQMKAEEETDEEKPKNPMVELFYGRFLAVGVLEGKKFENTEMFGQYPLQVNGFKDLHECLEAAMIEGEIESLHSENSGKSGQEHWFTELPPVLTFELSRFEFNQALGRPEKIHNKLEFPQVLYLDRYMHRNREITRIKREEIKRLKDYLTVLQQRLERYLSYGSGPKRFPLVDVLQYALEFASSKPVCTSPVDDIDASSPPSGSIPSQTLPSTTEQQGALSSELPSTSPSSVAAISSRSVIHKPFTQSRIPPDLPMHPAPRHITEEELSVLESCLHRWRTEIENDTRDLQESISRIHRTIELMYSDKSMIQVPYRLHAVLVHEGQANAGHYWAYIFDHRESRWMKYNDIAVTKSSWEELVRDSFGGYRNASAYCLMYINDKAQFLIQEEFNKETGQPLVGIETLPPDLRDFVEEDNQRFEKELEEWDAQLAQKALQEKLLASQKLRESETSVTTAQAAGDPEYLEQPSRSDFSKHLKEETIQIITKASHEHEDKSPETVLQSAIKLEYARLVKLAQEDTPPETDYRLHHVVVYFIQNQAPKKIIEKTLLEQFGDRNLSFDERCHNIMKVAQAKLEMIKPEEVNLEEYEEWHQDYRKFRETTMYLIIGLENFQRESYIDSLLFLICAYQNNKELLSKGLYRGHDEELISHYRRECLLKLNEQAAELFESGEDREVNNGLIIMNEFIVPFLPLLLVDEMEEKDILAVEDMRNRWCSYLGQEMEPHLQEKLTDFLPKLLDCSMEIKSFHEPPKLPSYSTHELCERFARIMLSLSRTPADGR
UniProt Q8NFA0: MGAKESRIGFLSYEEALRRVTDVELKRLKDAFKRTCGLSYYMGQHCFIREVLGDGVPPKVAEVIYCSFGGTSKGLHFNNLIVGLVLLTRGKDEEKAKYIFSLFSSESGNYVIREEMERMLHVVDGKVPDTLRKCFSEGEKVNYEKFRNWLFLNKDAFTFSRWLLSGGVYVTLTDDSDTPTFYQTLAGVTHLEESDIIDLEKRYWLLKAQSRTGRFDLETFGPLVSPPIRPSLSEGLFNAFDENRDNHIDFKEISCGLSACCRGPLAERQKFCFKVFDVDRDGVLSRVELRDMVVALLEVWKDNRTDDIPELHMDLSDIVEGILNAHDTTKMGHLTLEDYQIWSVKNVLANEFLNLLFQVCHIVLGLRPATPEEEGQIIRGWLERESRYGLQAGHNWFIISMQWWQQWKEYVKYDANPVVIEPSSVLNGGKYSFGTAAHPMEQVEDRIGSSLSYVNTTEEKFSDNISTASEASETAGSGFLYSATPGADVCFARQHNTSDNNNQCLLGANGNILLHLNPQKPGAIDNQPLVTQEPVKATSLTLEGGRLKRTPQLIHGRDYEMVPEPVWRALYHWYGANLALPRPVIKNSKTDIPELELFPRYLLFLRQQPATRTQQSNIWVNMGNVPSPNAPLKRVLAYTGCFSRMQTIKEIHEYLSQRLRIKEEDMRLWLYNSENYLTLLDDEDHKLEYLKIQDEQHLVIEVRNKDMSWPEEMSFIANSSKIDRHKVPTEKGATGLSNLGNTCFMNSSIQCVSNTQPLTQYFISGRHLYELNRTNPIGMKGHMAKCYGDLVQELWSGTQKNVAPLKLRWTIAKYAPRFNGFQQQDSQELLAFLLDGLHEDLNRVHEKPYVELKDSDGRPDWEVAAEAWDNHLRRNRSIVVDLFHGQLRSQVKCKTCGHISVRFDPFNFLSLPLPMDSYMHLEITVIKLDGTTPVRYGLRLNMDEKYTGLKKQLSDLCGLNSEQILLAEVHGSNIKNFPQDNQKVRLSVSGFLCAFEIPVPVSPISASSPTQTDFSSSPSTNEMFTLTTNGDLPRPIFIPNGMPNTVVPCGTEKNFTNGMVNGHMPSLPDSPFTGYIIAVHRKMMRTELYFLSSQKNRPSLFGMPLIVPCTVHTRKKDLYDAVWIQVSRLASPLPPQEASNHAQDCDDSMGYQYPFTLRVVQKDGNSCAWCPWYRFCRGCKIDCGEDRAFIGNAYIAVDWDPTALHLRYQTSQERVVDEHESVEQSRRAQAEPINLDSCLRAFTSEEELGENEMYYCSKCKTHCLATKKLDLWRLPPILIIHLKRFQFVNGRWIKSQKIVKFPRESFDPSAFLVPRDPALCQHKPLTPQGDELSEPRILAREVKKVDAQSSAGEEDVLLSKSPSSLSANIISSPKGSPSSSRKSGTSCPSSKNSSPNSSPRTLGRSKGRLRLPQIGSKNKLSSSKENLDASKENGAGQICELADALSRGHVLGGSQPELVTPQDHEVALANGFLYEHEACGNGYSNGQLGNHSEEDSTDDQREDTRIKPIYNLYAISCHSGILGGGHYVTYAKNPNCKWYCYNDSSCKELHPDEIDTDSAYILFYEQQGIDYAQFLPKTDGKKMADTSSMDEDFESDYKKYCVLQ
UniProt P14927: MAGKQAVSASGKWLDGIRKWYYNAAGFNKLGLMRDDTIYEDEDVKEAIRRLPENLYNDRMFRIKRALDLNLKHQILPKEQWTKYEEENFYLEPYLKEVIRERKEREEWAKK
UniProt P61960, whole entry, looked up: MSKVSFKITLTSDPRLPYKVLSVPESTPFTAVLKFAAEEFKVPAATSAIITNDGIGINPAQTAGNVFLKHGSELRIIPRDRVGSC
UniProt O60287: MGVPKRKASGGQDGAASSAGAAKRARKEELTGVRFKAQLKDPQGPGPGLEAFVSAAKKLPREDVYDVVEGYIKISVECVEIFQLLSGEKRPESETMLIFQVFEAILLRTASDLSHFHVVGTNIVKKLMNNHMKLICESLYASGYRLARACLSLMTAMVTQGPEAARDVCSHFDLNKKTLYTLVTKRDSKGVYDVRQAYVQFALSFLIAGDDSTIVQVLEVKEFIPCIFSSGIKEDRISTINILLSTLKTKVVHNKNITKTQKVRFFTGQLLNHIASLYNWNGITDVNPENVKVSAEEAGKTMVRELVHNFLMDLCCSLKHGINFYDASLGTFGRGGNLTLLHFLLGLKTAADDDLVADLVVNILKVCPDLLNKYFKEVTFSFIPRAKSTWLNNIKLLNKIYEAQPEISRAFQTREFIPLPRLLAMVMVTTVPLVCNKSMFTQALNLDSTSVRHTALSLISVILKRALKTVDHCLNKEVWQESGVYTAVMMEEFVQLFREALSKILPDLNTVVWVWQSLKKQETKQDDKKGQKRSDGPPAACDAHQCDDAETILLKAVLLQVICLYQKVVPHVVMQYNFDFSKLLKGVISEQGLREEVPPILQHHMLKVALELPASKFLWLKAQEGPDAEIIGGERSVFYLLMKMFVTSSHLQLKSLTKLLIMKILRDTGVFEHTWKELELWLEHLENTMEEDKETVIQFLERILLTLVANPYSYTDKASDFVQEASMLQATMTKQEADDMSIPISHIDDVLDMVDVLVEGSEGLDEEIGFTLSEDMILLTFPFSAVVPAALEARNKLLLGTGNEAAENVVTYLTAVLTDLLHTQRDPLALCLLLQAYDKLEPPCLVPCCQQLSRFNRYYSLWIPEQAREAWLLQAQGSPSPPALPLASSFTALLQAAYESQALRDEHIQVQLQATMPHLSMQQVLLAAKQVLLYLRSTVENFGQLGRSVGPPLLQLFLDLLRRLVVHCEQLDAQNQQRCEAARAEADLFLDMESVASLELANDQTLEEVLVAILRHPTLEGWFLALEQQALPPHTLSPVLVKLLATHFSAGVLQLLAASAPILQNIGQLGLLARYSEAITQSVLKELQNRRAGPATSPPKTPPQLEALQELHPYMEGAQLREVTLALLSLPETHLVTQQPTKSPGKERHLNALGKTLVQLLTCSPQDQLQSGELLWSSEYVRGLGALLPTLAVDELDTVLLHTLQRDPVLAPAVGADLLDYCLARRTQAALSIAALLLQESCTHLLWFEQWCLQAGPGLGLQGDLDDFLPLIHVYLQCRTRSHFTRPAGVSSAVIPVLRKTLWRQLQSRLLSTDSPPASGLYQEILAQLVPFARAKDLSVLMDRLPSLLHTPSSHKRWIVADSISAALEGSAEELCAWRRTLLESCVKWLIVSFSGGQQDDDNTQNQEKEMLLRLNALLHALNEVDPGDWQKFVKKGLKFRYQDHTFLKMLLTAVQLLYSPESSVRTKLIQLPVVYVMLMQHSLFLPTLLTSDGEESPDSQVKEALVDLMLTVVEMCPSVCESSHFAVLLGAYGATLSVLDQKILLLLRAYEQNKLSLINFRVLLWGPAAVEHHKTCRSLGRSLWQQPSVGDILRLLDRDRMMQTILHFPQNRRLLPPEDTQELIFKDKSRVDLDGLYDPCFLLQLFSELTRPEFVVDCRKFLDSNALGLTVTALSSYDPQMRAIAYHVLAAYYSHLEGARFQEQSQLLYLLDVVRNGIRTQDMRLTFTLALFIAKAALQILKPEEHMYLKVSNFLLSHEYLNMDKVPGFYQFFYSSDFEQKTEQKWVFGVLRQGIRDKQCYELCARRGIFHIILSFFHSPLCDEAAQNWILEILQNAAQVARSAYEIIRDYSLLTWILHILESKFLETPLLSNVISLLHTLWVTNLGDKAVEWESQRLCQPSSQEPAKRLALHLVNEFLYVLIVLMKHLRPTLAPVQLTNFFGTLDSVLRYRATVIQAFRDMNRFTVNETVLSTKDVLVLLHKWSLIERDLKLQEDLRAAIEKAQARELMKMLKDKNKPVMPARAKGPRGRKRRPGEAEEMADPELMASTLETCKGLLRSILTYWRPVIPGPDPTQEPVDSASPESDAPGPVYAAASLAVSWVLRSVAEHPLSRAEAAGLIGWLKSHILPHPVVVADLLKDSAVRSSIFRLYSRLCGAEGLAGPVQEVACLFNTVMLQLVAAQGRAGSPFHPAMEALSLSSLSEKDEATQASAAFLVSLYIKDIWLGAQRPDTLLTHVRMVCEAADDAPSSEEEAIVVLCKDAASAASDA

Key:
Experiment in all cases: log2 fold change, soluble protein after heating vs DMSO (PISA); higher = thermal stabilisation; K562 lysate, 10 uM; active = over 0.2 and 3.5 SD of the protein, either way, in both replicates (recomputed)
[1] = compound: Cc1cn(-c2cc(NC(=O)c3ccc(C)c(Nc4nccc(-c5cccnc5)n4)c3)cc(C(F)(F)F)c2)cn1 [nilotinib]
Procedure, shortened: (§1)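 The values are log-two fold changes in thermal stability compared with solvent controls and come from duplicates. They were obtained by TMTpro 16plex LC-MS/MS, with channel sums equalised, on the supernatant after 21,000xg for 90 min. That supernatant came from crude K562 extract at 1 mg/mL protein treated with 10 μM compound for 30 min, heated for 3 min across 48°C-58°C, pooled and brought to 0.5% NP-40 at 4°C.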

[2] = compound: Cc1nc(Nc2n[nH]c3c2CN(C(=O)N[C@H](CN(C)C)c2ccccc2)C3(C)C)c2sccc2n1
Procedure, shortened: as §1

[3] = compound: Cc1nc(Nc2ncc(C(=O)Nc3c(C)cccc3Cl)s2)cc(N2CCN(CCO)CC2)n1 [dasatinib]
Procedure, shortened: as §1

[4] = compound: Cc1ncc(-c2ccnc(Nc3ccc(S(C)(=O)=O)cc3)n2)n1C(C)C
Procedure, shortened: as §1

[5] = compound: Cn1cc(-c2ccc3c(c2)CCN3C(=O)Cc2cccc(C(F)(F)F)c2)c2c(N)ncnc21
Procedure, shortened: as §1

[6] = compound: Cn1cc(CNCC2CCN(c3ncc(C(=O)NO)cn3)CC2)c2ccccc21 [quisinostat]
Procedure, shortened: as §1

[7] = compound: Cn1cncc1[C@@](N)(c1ccc(Cl)cc1)c1ccc2c(c1)c(-c1cccc(Cl)c1)cc(=O)n2C [tipifarnib]
Procedure, shortened: as §1

[8] = compound: NC(=O)Nc1cc(-c2cccc(F)c2)sc1C(=O)N[C@H]1CCCNC1
Procedure, shortened: as §1

[9] = compound: NC(=O)c1cnc(N[C@@H]2CCCC[C@@H]2N)nc1Nc1cccc(-n2nccn2)c1
Procedure, shortened: as §1

[10] = compound: NC1(c2ccc(-c3nc4ccn5c(=O)[nH]nc5c4cc3-c3ccccc3)cc2)CCC1
Procedure, shortened: as §1

Measured: log2 fold change

UFD1 isoform 1 (UniProt Q92890)
inactive: [1] 0.042 | [2] -0.019 | [3] 0.017 | [4] -0.013 | [5] 0.025 | [6] 0.032 | [7] -0.013 | [8] -0.022 | [9] -0.008 | [10] -0.036

VAMP8 (UniProt Q9BV40)
inactive: [1] 0.006 | [2] -0.004 | [3] 0.051 | [4] 0.017 | [5] 0.015 | [6] 0.068 | [7] 0.017 | [8] -0.075 | [9] -0.021 | [10] 0.021

UQCRC1 (UniProt P31930)
inactive: [1] 0.024 | [2] -0.032 | [3] -0.006 | [4] -0.023 | [5] -0.021 | [6] 0.055 | [7] -0.027 | [8] -0.016 | [9] 0.025 | [10] 0.008

UMPS (UniProt P11172)
inactive: [1] 0.005 | [2] 0.007 | [3] -0.01 | [4] 0 | [5] 0.024 | [6] -0.028 | [7] 0.01 | [8] 0.001 | [9] 0.002 | [10] -0.004

USP4 (UniProt Q13107)
inactive: [1] -0.058 | [2] 0.023 | [3] 0.037 | [4] -0.068 | [5] 0.01 | [6] -0.083 | [7] 0.034 | [8] 0.064 | [9] 0.022 | [10] -0.053

USP48 (UniProt Q86UV5)
inactive: [1] -0.016 | [2] -0.045 | [3] -0.016 | [4] -0.032 | [5] 0.005 | [6] 0.19 | [7] 0.033 | [8] -0.077 | [9] 0.005 | [10] -0.012

USF1 (UniProt P22415)
inactive: [1] -0.079 | [2] 0.012 | [3] 0.077 | [4] -0.042 | [5] 0.022 | [6] 0.009 | [7] -0.007 | [8] 0.029 | [9] 0 | [10] -0.012

VARS2, A0A0G2JL52
inactive: [1] 0.056 | [2] -0.114 | [3] -0.072 | [4] 0.024 | [5] 0.009 | [6] -0.027 | [7] -0.054 | [8] -0.012 | [9] 0.026 | [10] -0.039

UQCR11 (UniProt O14957)
inactive: [1] 0.096 | [2] -0.001 | [3] 0.03 | [4] 0.137 | [5] -0.012 | [6] 0 | [7] 0.044 | [8] -0.022 | [9] -0.079 | [10] -0.015

VAMP3 (UniProt Q15836)
inactive: [1] 0.052 | [2] 0.043 | [3] -0.068 | [4] -0.065 | [5] -0.079 | [6] -0.103 | [7] -0.004 | [8] -0.08 | [9] 0.007 | [10] 0.036

USP25 (UniProt Q9UHP3)
inactive: [1] 0.016 | [2] 0.013 | [3] -0.003 | [4] -0.016 | [5] 0.011 | [6] -0.011 | [7] 0.004 | [8] 0.022 | [9] -0.006 | [10] -0.015

UTP14A (UniProt Q9BVJ6)
inactive: [1] 0.002 | [2] -0.029 | [3] 0.097 | [4] -0.009 | [5] 0.001 | [6] -0.011 | [7] -0.017 | [8] -0.009 | [9] 0.001 | [10] 0.078

USP32 (UniProt Q8NFA0)
inactive: [1] 0.024 | [2] -0.021 | [3] 0.016 | [4] -0.011 | [5] 0.014 | [6] -0.078 | [7] -0.045 | [8] 0.07 | [9] -0.005 | [10] -0.069

USP34 (UniProt Q70CQ2)
inactive: [1] -0.018 | [2] -0.002 | [3] -0.042 | [4] -0.018 | [5] 0.023 | [6] -0.041 | [7] 0.021 | [8] 0.074 | [9] 0.018 | [10] 0

USP3 (UniProt Q9Y6I4)
inactive: [1] 0.045 | [2] -0.015 | [3] -0.028 | [4] 0.028 | [5] 0.008 | [6] -0.01 | [7] -0.054 | [8] 0.107 | [9] -0.005 | [10] -0.042

UVRAG (UniProt Q9P2Y5)
inactive: [1] -0.079 | [2] -0.008 | [3] 0.004 | [4] -0.008 | [5] -0.05 | [6] -0.017 | [7] 0 | [8] 0.025 | [9] -0.016 | [10] 0.057

USP24 (UniProt Q9UPU5)
inactive: [1] -0.024 | [2] 0.007 | [3] -0.046 | [4] 0 | [5] 0.008 | [6] -0.004 | [7] 0.004 | [8] 0.028 | [9] 0.006 | [10] -0.003

UGP2 (UniProt Q16851)
inactive: [1] 0.008 | [2] -0.01 | [3] -0.015 | [4] -0.009 | [5] 0.001 | [6] 0.024 | [7] 0.012 | [8] -0.001 | [9] 0.003 | [10] -0.003

UQCRB (UniProt P14927)
inactive: [1] 0.004 | [2] -0.006 | [3] 0.019 | [4] -0.006 | [5] -0.038 | [6] -0.033 | [7] -0.013 | [8] 0.011 | [9] 0.021 | [10] 0.013

USE1 (UniProt Q9NZ43)
inactive: [1] -0.019 | [2] 0.038 | [3] 0.068 | [4] 0.057 | [5] 0.02 | [6] 0.08 | [7] -0.021 | [8] 0.029 | [9] -0.027 | [10] 0.025

VDAC2 (UniProt Q5JSD1)
inactive: [1] 0.005 | [2] 0.012 | [3] 0.048 | [4] 0.06 | [5] -0.106 | [6] -0.043 | [7] -0.114 | [8] -0.023 | [9] -0.066 | [10] 0.037

UFM1 (UniProt P61960)
inactive: [1] 0.042 | [2] 0 | [3] -0.037 | [4] 0.107 | [5] -0.032 | [6] 0.321 | [7] 0.088 | [8] -0.116 | [9] -0.063 | [10] 0.043

VAV3 isoform 4 (UniProt Q9UKW4)
inactive: [1] 0.155 | [2] -0.028 | [3] -0.061 | [4] -0.055 | [5] 0.08 | [6] 0.121 | [7] -0.012 | [8] -0.017 | [9] -0.054 | [10] 0.038

USP16 (UniProt Q9Y5T5)
inactive: [1] 0.016 | [2] 0.005 | [3] 0.053 | [4] 0.014 | [5] 0.041 | [6] -0.014 | [7] 0.016 | [8] 0.011 | [9] 0.023 | [10] 0.012

URB1 (UniProt O60287)
inactive: [1] -0.046 | [2] -0.049 | [3] -0.062 | [4] 0.185 | [5] 0.081 | [6] -0.049 | [7] 0.077 | [8] 0.016 | [9] -0.122 | [10] -0.047

UQCRH (UniProt P07919)
inactive: [1] 0.001 | [2] 0.018 | [3] 0.012 | [4] 0.015 | [5] -0.016 | [6] -0.107 | [7] -0.069 | [8] -0.015 | [9] -0.012 | [10] 0.071

Six neighbouring records already listed:
UGP2 (UniProt Q16851)
inactive: [1] 0.008 | [2] -0.01 | [3] -0.015 | [4] -0.009 | [5] 0.001 | [6] 0.024 | [7] 0.012 | [8] -0.001 | [9] 0.003 | [10] -0.003

UQCRB (UniProt P14927)
inactive: [1] 0.004 | [2] -0.006 | [3] 0.019 | [4] -0.006 | [5] -0.038 | [6] -0.033 | [7] -0.013 | [8] 0.011 | [9] 0.021 | [10] 0.013

USE1 (UniProt Q9NZ43)
inactive: [1] -0.019 | [2] 0.038 | [3] 0.068 | [4] 0.057 | [5] 0.02 | [6] 0.08 | [7] -0.021 | [8] 0.029 | [9] -0.027 | [10] 0.025

VDAC2 (UniProt Q5JSD1)
inactive: [1] 0.005 | [2] 0.012 | [3] 0.048 | [4] 0.06 | [5] -0.106 | [6] -0.043 | [7] -0.114 | [8] -0.023 | [9] -0.066 | [10] 0.037

UFM1 (UniProt P61960)
inactive: [1] 0.042 | [2] 0 | [3] -0.037 | [4] 0.107 | [5] -0.032 | [6] 0.321 | [7] 0.088 | [8] -0.116 | [9] -0.063 | [10] 0.043

VAV3 isoform 4 (UniProt Q9UKW4)
inactive: [1] 0.155 | [2] -0.028 | [3] -0.061 | [4] -0.055 | [5] 0.08 | [6] 0.121 | [7] -0.012 | [8] -0.017 | [9] -0.054 | [10] 0.038

More results follow.

USP14 (UniProt P54578)
inactive: [1] 0.004 | [2] -0.025 | [3] 0.035 | [4] -0.013 | [5] 0.019 | [6] 0.032 | [7] 0.013 | [8] -0.011 | [9] 0.014 | [10] -0.003

VAMP7 (UniProt P51809)
inactive: [1] 0.012 | [2] -0.025 | [3] -0.007 | [4] -0.057 | [5] 0.007 | [6] -0.015 | [7] 0 | [8] -0.017 | [9] 0.009 | [10] 0.02

USO1 (UniProt O60763)
inactive: [1] 0.026 | [2] -0.014 | [3] -0.141 | [4] -0.048 | [5] 0.009 | [6] 0.087 | [7] -0.085 | [8] 0.046 | [9] -0.052 | [10] 0

UFSP2 (UniProt Q9NUQ7)
inactive: [1] -0.004 | [2] -0.015 | [3] 0.007 | [4] -0.038 | [5] -0.002 | [6] 0.004 | [7] -0.001 | [8] 0.016 | [9] 0.002 | [10] -0.035
